Test results reported in PubChem BioAssay AID1347131 (National Center for Advancing Translational Sciences (NCATS), 2019).
Hit rate of the full screen: of about 410,000 compounds, about 2,000 (0.49%) were called active. Inconclusive results, whose numbers are uncertain, are shown with a selection of clear calls. The call rests on the fitted dose curve; tested in HEK293 reporter line. Where the call is inconclusive, the potency comes from a doubtful curve fit.

assay: qHTS Assay for Foot and Mouth Disease Virus Antivirals: Primary Screen against the MLPCN compound library; settings: FMDV antiviral cell-based qHTS; activity, negative = inhibition: at 57.9 µM (top of the series); further: nearly all actives have a fitted effect of over 55% in size
Potency means the concentration at half of the fitted maximal effect.

Row | SMILES | Potency | activity, negative = inhibition
1 | Cc1nc(SCC(=O)c2cc(C)n(C3CC3)c2C)c2ccccc2n1 | inconclusive: 10 µM [inhibitor, partial curve, poor fit] | –
2 | CCCNC(=O)c1nnsc1S(=O)c1ccc(Cl)cc1 (stereo not drawn) | inconclusive: 35.5 µM [inhibitor, single point] | –
3 | Cc1ccc(N(Cc2cc(=O)[nH]c3ccccc23)C(=O)CCl)c(C)c1 | inconclusive: 35.5 µM [inhibitor, partial curve, poor fit] | –
4 | CCc1nnc(NC(=O)c2cccc(C(=O)Nc3nnc(CC)s3)n2)s1 | inactive | –
5 | Cc1ccn2cc(-c3ccc(O)c(O)c3)nc2c1 | inconclusive: 39.8 µM [inhibitor, single point] | –
6 | CC(C)CCn1c(CN(C)Cc2ccccc2)nc2c1c(=O)n(C)c(=O)n2C | inconclusive: 39.8 µM [inhibitor, partial curve, poor fit] | –
7 | O=C(COC(=O)CC(c1ccccc1)c1ccccc1)NCc1ccc(Cl)cc1 | inconclusive: 35.5 µM [inhibitor, partial curve, poor fit] | –
8 | Cc1ccc(-n2c3nc(=O)[nH]c(=O)c-3cc3cc([N+](=O)[O-])ccc32)cc1C | inconclusive: 28.2 µM [inhibitor, partial curve, poor fit] | –
9 | Cc1nc([N+](=O)[O-])c(Br)n1CC(=O)c1cccc([N+](=O)[O-])c1 | inconclusive: 31.6 µM [inhibitor, partial curve, poor fit] | –
10 | CCCCCCCCN1C(=O)[C@H](CC(=O)NCc2ccc(OC)c(OC)c2)C[C@@]2(C(=O)OC)CCCCC=C12 | inconclusive: 11.2 µM [inhibitor, partial curve] | –
11 | CC(C)(C)C(=O)N1CCN(c2ncnc3scc(-c4ccccc4)c23)CC1 | inconclusive: 31.6 µM [inhibitor, partial curve, poor fit] | –
12 | COc1cc(Nc2nc(SCc3cccc(Cl)c3)nc3ccccc23)cc(OC)c1 | inconclusive: 15.8 µM [inhibitor, partial curve, poor fit] | –
13 | Cc1ccc(C(=O)OCC(=O)Nc2ccc(C)c(S(=O)(=O)N3CCCCC3)c2)c(O)c1 | inactive | –
14 | O=c1c2ccccc2nc(/C=C/c2ccc(O)cc2)n1CCc1ccccc1 | inconclusive: 35.5 µM [inhibitor, partial curve, poor fit] | –
15 | CCOC(=O)[C@]12Cc3cc4ccccc4cc3[C@H]1N(Cc1ccccc1)C(=O)c1cc(OC)ccc12 | inconclusive: 7.94 µM [inhibitor, full curve, poor fit] | –
16 | CC(OC(=O)CSCC(=O)Nc1ccc(Cl)cc1)C(=O)N(C)Cc1ccccc1 (stereo not drawn) | inconclusive: 28.2 µM [inhibitor, partial curve, poor fit] | –
17 | Cn1c(-c2cc3ccc(OC(=O)C(C)(C)C)cc3oc2=O)nc2ccccc21 | inconclusive: 3.98 µM [inhibitor, single point] | –
18 | Cc1nn(-c2ccc(C(=O)O)cc2)c(N)c1-c1ccccc1 | inconclusive: 10 µM [inhibitor, partial curve] | –
19 | CC1(C)C(=O)Nc2ccccc2N1C(=O)CSc1nc(-c2ccccc2)cs1 | inconclusive: 15.8 µM [inhibitor, partial curve, poor fit] | –
20 | Cc1ccc(S(=O)(=O)N(C)CCCC(=O)Nc2ccncc2)cc1 | inactive | –

Retrieved one by one from above (two):
Row | SMILES | Potency | activity, negative = inhibition
4 | CCc1nnc(NC(=O)c2cccc(C(=O)Nc3nnc(CC)s3)n2)s1 | inactive | –
12 | COc1cc(Nc2nc(SCc3cccc(Cl)c3)nc3ccccc23)cc(OC)c1 | inconclusive: 15.8 µM [inhibitor, partial curve, poor fit] | –

Later entries

Row | SMILES | Potency | activity, negative = inhibition
21 | CCN(CC)c1cc(C)c2cc(NC(=O)/C=C/c3ccccc3Cl)ccc2n1 | inconclusive: 3.55 µM [inhibitor, full curve] | –
22 | COc1cc(/C=C/C(=O)c2ccc(C)c([N+](=O)[O-])c2)cc(OC)c1O | inconclusive: 14.1 µM [inhibitor, partial curve, poor fit] | –
23 | COCCn1c(=O)[nH]c2cc(C(=O)N3CCN(c4ccc(Cl)cc4)CC3)ccc2c1=O | inconclusive: 15.8 µM [inhibitor, partial curve, poor fit] | –
24 | COc1cccc(C(=O)Nc2nc3ccccc3[nH]2)c1 | inconclusive: 12.6 µM [inhibitor, single point] | –
25 | CS(=O)(=O)N1CCN(c2ccccc2NC(=O)c2ccc(-c3ccc(Cl)cc3Cl)o2)CC1 | – | inconclusive: -30.8% [inhibitor]
26 | CC(=O)N1CCc2c(sc3c2c(=O)n(-c2ccc(F)cc2)c(=O)n3Cc2cc(C)ccc2C)C1 | inconclusive: 3.16 µM [inhibitor, full curve] | –
27 | COCC(C)n1c(-c2ccc3c(c2)NC(=O)CO3)csc1=Nc1ccc(OC(F)F)cc1 (stereo not drawn) | inconclusive: 20 µM [inhibitor, partial curve, poor fit] | –
28 | O=C(NCc1ccccc1)C(=O)Nc1cccc(C(=O)O)c1 | inconclusive: 11.2 µM [inhibitor, partial curve, poor fit] | –
29 | COC(=O)N/N=C/c1c(C)c(C(=O)c2ccc(F)cc2)n2ccccc12 | inconclusive: 35.5 µM [inhibitor, single point] | –
30 | O=C(Nc1cccc(Cn2cccn2)c1)c1cc2c(s1)CCCC2 | inconclusive: 35.5 µM [inhibitor, single point] | –
31 | CCN(CC(O)Cn1c2ccccc2c2ccccc21)S(=O)(=O)c1ccc(F)cc1 (stereo not drawn) | inconclusive: 28.2 µM [inhibitor, partial curve, poor fit] | –
32 | CCCCCCNC(=O)O[C@H]1Cn2c(=O)ccc(=O)n2[C@@H]2CN(S(=O)(=O)c3ccc(C)cc3)C[C@]12O | inconclusive: 17.8 µM [inhibitor, partial curve, poor fit] | –
33 | O=C(Nc1ccc(Cl)cc1)C1C2CCC3C(CCC21)C3(Cl)Cl (stereo not drawn) | inconclusive: 12.6 µM [inhibitor, partial curve] | –
34 | COC(=O)c1ccc(CSc2nc3c([nH]c4ccccc43)c(=O)n2-c2ccc(F)cc2)o1 | inconclusive: 5.62 µM [inhibitor, partial curve] | –
35 | Cc1c(N=C(N)/N=C(\N)Nc2ccc(Br)cc2)c(=O)n(-c2ccccc2)n1C | – | inconclusive: -31.1% [inhibitor]
36 | CCOC(=O)[C@]12Cc3cc(C)ccc3[C@H]1N(CCC(=O)OC)C(=O)c1cc(OC)ccc12 | inconclusive: 31.6 µM [inhibitor, partial curve, poor fit] | –
37 | O=C(CN1CCN(S(=O)(=O)c2ccc(Cl)cc2)CC1)Nc1ccc2c(c1)OCCO2 | inactive | –
38 | CCc1ccc(CNC(=O)CN2C(=O)c3cccnc3Oc3ccc(Cl)cc32)cc1 | inconclusive: 17.8 µM [inhibitor, partial curve] | –
39 | Cc1c(C(=O)Nc2c3c(nn2C(C)(C)C)CS(=O)(=O)C3)cccc1[N+](=O)[O-] | inconclusive: 10 µM [inhibitor, partial curve, poor fit] | –
40 | N#C/C(=C/c1ccc(N2CCCCC2)o1)C(=O)NCCc1c[nH]c2ccccc12 | inactive | –

Row | SMILES | Potency | activity, negative = inhibition
41 | O=c1[nH]c(=S)n(Cc2ccc(F)cc2)c(O)c1C=NCc1cccnc1 | inconclusive: 12.6 µM [inhibitor, partial curve] | –
42 | O=c1cnnc(Nc2ccc(F)cc2)[nH]1 | inconclusive: 14.1 µM [inhibitor, partial curve] | –
43 | COc1cccc(C=NNc2nnc(NN=Cc3cccc(OC)c3OC)c3ccccc23)c1OC | inconclusive: 20 µM [inhibitor, partial curve, poor fit] | –
44 | COc1ccc(-c2ocnc2C(=O)N2CCN(C(c3ccccc3)c3ccccc3)CC2)cc1 | inconclusive: 10 µM [inhibitor, partial curve] | –
45 | Fc1ccc2nc(Nc3nc4c(F)cc(F)cc4s3)sc2c1 | inconclusive: 28.2 µM [inhibitor, partial curve, poor fit] | –
46 | c1ccc(CN(Cc2ccccc2)c2c3c(nc4ncnn24)CCC3)cc1 | – | inconclusive: -34.8% [inhibitor]
47 | CCOc1ccccc1NC(=O)c1cccc(NC(=O)C(C)C)c1 | inconclusive: 10 µM [inhibitor, partial curve] | –
48 | Cc1ccc(N=Nc2cc(C)ccc2N)cc1 | inconclusive: 20 µM [inhibitor, single point] | –
49 | Cc1ccc(NC(=O)CCS(=O)(=O)c2ccccc2)cc1S(=O)(=O)N1CCCCCC1 | inconclusive: 10 µM [inhibitor, partial curve] | –
50 | CCCCCCC[N+](CC)(CC)CCCCc1ccc(Cl)cc1 | inconclusive: 17.8 µM [inhibitor, partial curve, poor fit] | –
51 | CC1=C(C(=O)OCc2ccccc2)C(c2ccccc2Br)NC(=O)N1 (stereo not drawn) | inconclusive: 28.2 µM [inhibitor, partial curve, poor fit] | –
52 | CC(C(=O)Nc1nc(-c2ccc(F)cc2)cs1)N1C(=O)C2CC=CCC2C1=O (stereo not drawn) | inconclusive: 28.2 µM [inhibitor, partial curve, poor fit] | –
53 | CCOc1ccc(C(C)=O)cc1N1C(=O)C2C3C=CC(O3)C2C1=O (stereo not drawn) | inconclusive: 25.1 µM [inhibitor, single point] | –
54 | O=C(/C=C\Nc1cccc(F)c1)c1ccc2c(c1)OCO2 | inconclusive: 10 µM [inhibitor, single point] | –
55 | COc1ccc2[nH]c3c(N4CCC(O)(c5cccc(C(F)(F)F)c5)CC4)ncnc3c2c1 | inconclusive: 28.2 µM [inhibitor, partial curve, poor fit] | –
56 | CCOc1cccc2cc(C(=O)NC(C)c3ccccc3)c(=N)oc12 (stereo not drawn) | inactive | –
57 | O=C(Nc1nc2ccccc2[nH]1)c1ccc(Cl)cc1 | active: 12.6 µM | –
58 | O=C(Oc1ccccc1/C=C\C(=O)c1cc2ccccc2o1)c1cccc(F)c1 | inconclusive: 39.8 µM [inhibitor, single point] | –
